From patent publication US20180057581A1
Changes are numbered by the printed parent chain. No constants are given. Whether binding was seen depends on the method and setting. Some binding calls cover weakened binding; strength is not graded here.

T1: Recombinant cynomolgus monkey sgM-CSF (cynomolgus (Macaca fascicularis))
T1 sequence: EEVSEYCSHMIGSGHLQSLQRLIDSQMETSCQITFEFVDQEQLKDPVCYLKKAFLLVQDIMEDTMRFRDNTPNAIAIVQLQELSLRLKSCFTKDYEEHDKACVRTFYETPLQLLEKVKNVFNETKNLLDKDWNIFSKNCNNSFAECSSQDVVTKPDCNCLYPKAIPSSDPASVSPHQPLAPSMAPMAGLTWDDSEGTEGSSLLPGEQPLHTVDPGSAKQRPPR

B1: Blanche, Fab (Fab, V domains shown)
VH: QVQLQQSGPGLVKPSQTLSLTCAISGDSVSSNSAAWNWIRQSPSRGLEWLGRTYYRSKWKHEYAMSVKSRITINPDTSKNQFSLQLNSVTPEDTAVYYCARDRYYYSAFDYWGQGTLVTVSS
VL: DIALTQPASVSGSPGQSITISCTGTSSDVGGYNSVSWYQQHPGKAPKLMIYAVSNRPSGVSNRFSGSKSGNTASLTISGLQAEDEADYYCASYDERFTRVFGGGTKLTVLG
B2: Caline, Fab (Fab, V domains shown)
VH: B1 VH
VL: B1 VL with D1Q, I2S
B3: Laurine, Fab (Fab, V domains shown)
VH: B1 VH with H61K, M65Q
VL: B1 VL
B4: Madeleine, Fab (Fab, V domains shown)
VH: B1 VH with H61K, M65Q
VL: B1 VL with D1Q, I2S
B5: Maelle, Fab (Fab, V domains shown)
VH: B1 VH with D27E, S31T, N32S, H61K, M65Q
VL: B1 VL with D1Q, I2S, M49I
B6: Meriem, Fab (Fab, V domains shown)
VH: B1 VH with S31T, N32S, H61K, M65Q
VL: B1 VL with D1Q, I2S, M49I
B7: Romaine, Fab (Fab, V domains shown)
VH: EVQLVESGGGLVKPGGSLRLSCAASGFTFSIYAMSWVRQAPGKGLEWVGRIKSNADGGTTEYAAPVKGRFTISRDDSKNTLYLQMNSLKTEDTAVYYCARMRYYSDLYFDPWGQGTLVTVSS
VL: DIELTQPPSVSVSPGQTASITCSGDAIGSKYVHWYQQKPGQAPVLVISKDNKRPSGIPERFSGSNSGNTATLTISGTQAEDEADYYCQTATVSSYWWVFGGGTKLTVLG
B8: Satine, Fab (Fab, V domains shown)
VH: B7 VH
VL: SYELTQPPSVSVSPGQTASITCSGDKLGQKYVSWYQQKPGQSPVLVISQDRKRPSGIPERFSGSNSGNTATLTISGTQAEDEADYYCQTWTHLQWVFGGGTKLTVLG
B9: HeRX1-10G1, Fab (Fab, V domains shown)
VH: QVQLQESGPGLVKPSQTLSLTCTVSDYSITSDYAWNWIRQFPGKGLEWMGYISYSGSTSYNPSLKSRITISRDTSKNQFSLQLNSVTAADTAVYYCASFDYAHAMDYWGQGTTVTVSS
VL: DIVLTQSPAFLSVTPGEKVTFTCQASQSIGTSIHWYQQKTDQAPKLLIKYASESISGIPSRFSGSGSGTDFTLTISSVEAEDAADYYCQQINSWPTTFGGGTKLEIKR

Assays:
human M-CSF (human) = human M-CSF (human) (UniProt P09603); assay: SET, Fab
[1] = biological target: T1, Recombinant cynomolgus monkey sgM-CSF (cynomolgus (Macaca fascicularis)); assay: SET, Fab

Binder	binding (human M-CSF (human))	binding [1]
B1	binds	
B2	binds	binds
B3	binds	
B4	binds	
B5	binds	
B6	binds	
B7	binds	
B8	binds	
B9	binds	
